At least one structure is not confirmed: it was looked up by name or label, or the drawing left a doubt.
Assays:
Format in all cases: cell-based, Leishmania major
[1] = system: L. major LV39 WT promastigotes
Procedure: (§1) Log phase L. major LV39 WT and spt2 promastigotes were inoculated at 1.0×10^5 cells/ml and culture densities were determined 48 hours later.
(§2) Wild type (WT) L. major LV39 clone 5 (Rho/SU/59/P), FV1 (MOHM/IL/80/Friedlin virulent clone 1), spt2^− (Δspt2::HYG/Dspt2::PAC), ads1^− (Δads1::HYG/Dads1::SAT), and spt2^−/+SPT2 (Δspt2::HYG/Dspt2::PAC/+pXG-SPT2) cells were grown in M199 with 10% FBS and supplements as described [Zhang, et al., 2003; Kapler, et al., 1990]. For growth inhibition assays, promastigotes were inoculated at 1.0×10^5 cells/ml (in T25 flasks, 5 ml of medium per flask) in various concentrations of drugs. All cultures contained equivalent amount of DMSO or methanol (0.1% or less, from drug stocks). After 48 or 96 (for ads1^− only) hours, culture densities were determined using a Coulter counter (Z1, Beckman) and effects of drugs on growth were assessed in relative to cultures grown in the absence of drugs.
A classical isobologram was constructed by plotting EC50s of drugs either alone or in combination.

[2] = system: L. major spt2^− promastigotes; assay: Flagellar localization of FcaBP-HA (immunofluorescence), spt2^− promastigotes; settings: ITZ 200 nM and 3.5 μM, 20 hours
[3] = system: L. major LV39 WT promastigotes; assay: Flagellar localization of FcaBP-HA (immunofluorescence), WT promastigotes; settings: ITZ 200 nM and 3.5 μM, 20 hours
[4] = system: L. major ads1^− promastigotes; assay: Growth inhibition assay, EPL-null ads1^− mutant versus FV1 WT; settings: 96 hours for ads1^−
Procedure: as §2

[5] = system: L. major spt2^− promastigotes
Procedure: as §1, §2

Q: How did the Effect on growth ([1]; LV39 WT, 5-10 nM) turn out when `CCC(C)n1ncn(-c2ccc(N3CCN(c4ccc(OCC5COC(Cn6cncn6)(c6ccc(Cl)cc6Cl)O5)cc4)CC3)cc2)c1=O` (stereo not shown) [Itraconazole] was run?
A: only minor effect on growth

Q: What about the “Change of ITZ sensitivity on overexpression of LmC14DM in WT” value ([1]; WT SSU::C14DM) of the same molecule?
A: very little effect

Q: And the “Flagellar localization of FcaBP-HA” value [2]?
A: significant mislocalization of FcaBP-HA

Q: And the “Flagellar localization of FcaBP-HA” value [3]?
A: could still target FcaBP-HA to flagella, although at slightly lower efficiencies

Q: And the “Sensitivity of ads1^− mutant in comparison to FV1 WT” value [4]?
A: hypersensitive

Q: And the “EC50 for ITZ in spt2^−/+SPT2” value ([5]; episomal expression of the SPT2 gene in spt2^−)?
A: back to WT level

Q: What about the “Effect of supplementation of ethanolamine or choline on the sensitivity in spt2^− parasites” value ([5]; spt2^− with EtN or choline) of the same molecule?
A: almost no effect
